Measurements: patent US6518246B1, “Pharmaceutical composition and method for the treatment of neoplastic cells” (priority 2001, dated 2003)
At least one structure is not confirmed: it was looked up by name or label, or the drawing left a doubt.

Key:
[1] = test system: N-methyl-N′-nitroguanidine-induced rat colonic adenocarcinoma; experiment: Blood vessel density (relative volume density, point-counting), Example 1; assay type: in vivo, nude mice (C57BL/6JBom-nu); details: single substance 10 μg/kg every 12 hours for five days; vs controls; galanin post-test P<0.01
[2] = test system: N-methyl-N′-nitroguanidine-induced rat colonic adenocarcinoma; experiment: Apoptosis by in situ hybridisation, apoptotic index, Example 1; assay type: in vivo, nude mice (C57BL/6JBom-nu); details: single substance 10 μg/kg, five days
Description: (§1) The animals were divided into two groups of 10 mice each. The first group received s.c. injections of 100 μl saline solution containing a mixture of octreotide (Sandostatin®, Novartis), galanin (synthetic human galanin, Sigma, Stockholm), and serotonin (5-hydroxytryptamine, oxalate salt, Sigma) at 10 μg/kg body weight each. Injections were administered every 12 hours for five days. The second group served as controls and received only saline solution. Thirty-two mice were implanted with the tumour as described above and left for seven days. After measuring the tumour diameter, the animals were divided into four groups of eight. […]
(§2) At the end of the experiments, the animals were weighed and then decapitated. The tumours were dissected carefully and their diameters and weight were determined. […]
Apoptosis was detected by in situ hybridisation using two different kits (TA200 and TA5411) from R&D Systems Inc (Minneapolis, Minn. USA). […] In the first kit, fragments of DNA were detected by incorporating modified nucleotides at the 3′OH ends of the fragments, using terminal deoxynucleotidyl transferase (TdT). The incorporated 5-bromodeoxyuridine (BrdU) was detected by a biotinylated anti-BrdU antibody. […] The peroxidase in both kits was detected by diaminobenzidine tetrahydrochloride (DAB). […]

[3] = test system: chemically induced colon cancer; details: rats; cited from earlier work
[4] = test system: N-methyl-N′-nitroguanidine-induced rat colonic adenocarcinoma; experiment: Proliferation (PCNA immunostaining), proliferation index, Example 1; assay type: in vivo, nude mice (C57BL/6JBom-nu); details: single substance 10 μg/kg, five days; vs controls, P=0.8
Description: as §1, §2
To detect proliferation, the sections from the tumour tissue samples from all the animals were immnmostained with the avidin-biotin-complex (ABC) method (Dakopatts, Glostrup, Denmark), as described in detail earlier (E1-Salhy et al., 1993). […] Peroxidase was detected by immersing the sections in 50 ml Tris-buffer containing 25 mg diaminobenzidine tetrahydrochloride (DAB) and 10 μl of 30% H2O2 followed by slight counter-staining in Mayer's haematoxylin. […] The proliferating index was determined as described for apoptosis.

[5] = test system: N-methyl-N′-nitroguanidine-induced rat colonic adenocarcinoma; experiment: Tumour volume and wet weight, Example 1; assay type: in vivo, nude mice (C57BL/6JBom-nu); details: single substance 10 μg/kg body weight every 12 hours for five days, vs controls
Description: Female nude mice (C57BL/6JBom-nu, Bomholtgård Breeding and Research Centre, Denmark), 8 weeks old, with a mean body weight of 22.9 g (range 20.4-25.5), were used in this investigation. The mice were kept one to each cage in a laminar filtered airflow cabinet under pathogen-free conditions. The animals were kept under a constant temperature (22±2° C.) and relative humidity (55±5%), with 12 h dark/light cycles. They were fed on a standard pellet diet (R 34, Lactamin, Vadstena, Stockholm) and given water ad libitum. All experiments were performed by aseptic techniques under laminar airflow.
Twenty mice were injected s.c. with 100 μl cell suspension containing 2×10^6 viable cells of an N-methyl-N′-nitroguanidine-induced rat colonic adenocarcinoma (provided kindly by Professor L.-O. Hafström, Departnent of Surgery, University Hospital, Umeå, Sweden). After seven days, the greatest and least diameters of the tumours were measured and the volume was calculated with the use of the following formula:
volume=(mean diameter)^333 π/6.
The animals were divided into two groups of 10 mice each. […]
as §2

CC(C)C[C@H](NC(=O)CNC(=O)[C@H](CC(N)=O)NC(=O)[C@H](CCCCN)NC(=O)[C@H](CC(=O)O)NC(=O)[C@H](CO)NC(=O)[C@H](Cc1ccccc1)NC(=O)[C@H](CO)NC(=O)[C@H](CCCNC(=N)N)NC(=O)[C@H](Cc1c[nH]cn1)NC(=O)[C@H](CC(N)=O)NC(=O)CNC(=O)[C@@H](NC(=O)[C@H](C)NC(=O)[C@H](Cc1c[nH]cn1)NC(=O)[C@@H]1CCCN1C(=O)CNC(=O)[C@H](CC(C)C)NC(=O)[C@H](CC(C)C)NC(=O)[C@H](Cc1ccc(O)cc1)NC(=O)CNC(=O)[C@H](C)NC(=O)[C@H](CO)NC(=O)[C@H](CC(N)=O)NC(=O)[C@H](CC(C)C)NC(=O)[C@@H](NC(=O)[C@H](Cc1c[nH]c2ccccc12)NC(=O)CN)[C@@H](C)O)C(C)C)C(=O)N[C@H](C(=O)N[C@@H](CO)C(=O)O)[C@@H](C)O [galanin]
relative volume density of blood vessels in the tumours [1]: decreased | Apoptotic index, second in situ hybridisation kit (mean±SD) ([2]; controls 3.5±0.6, P=0.15): 4±1.2 | Apoptotic index, first in situ hybridisation kit ([2]; vs controls, P=0.2): no difference | incidence of chemically induced colon cancer [3]: significantly decreased | tumour proliferation index [4]: Neither was there any difference | tumour volume ([5]; P=0.4): no significant difference | tumour weight ([5]; P=0.8): no significant difference
